Consider two molecules from article PMC4349623 (BMC Biochemistry, 2015).

For one data set, the system named is CaM. Put plainly: Stern-Volmer quenching of CaM-bound ANS by acrylamide. Conditions: data not shown. The source says:
Given that steady state fluorescence cannot differentiate the intensity contribution from individual ANS molecules, we utilized time-correlated single-photon counting (TCSPC) spectrometry to measure the ANS fluorescence decay. […] The data was best fit with a three-exponential-decay function. The shortest lifetime (τ3 = ~0.3 ns) was assigned to that of free ANS molecules, which was confirmed by using an ANS solution alone. Note that this lifetime reaches the detection limitation of our instrument and therefore, it cannot be determined precisely. […] The fitting also provided the fractional (or relative amplitude), fs, which weights the “amount” of the emitting species, and the normalized pre-exponential value, Bs, which provides the relative concentration of each species. […] In other words, the long lifetime component of ANS is one order less quenched by acrylamide.
For a quenching that is purely by collision, the steady-state and lifetime Stern-Volmer quenching equation can be expressed as4 <τo>/<τ>=1+KsvQandKsv=kqxτ0 where τ and τo are the lifetime in the presence and absence of the quencher, and kq is the quenching rate constant.

Data set [1] can be described thus: ANS fluorescence lifetime (TCSPC). Conditions: for ANS lifetime τ 1, Component 1 / ANS lifetime τ 2, Component 2 / fractional intensity f 1, Component 1 / fractional intensity f 2, Component 2: 2 mM Ca^2+, 20°C, average; for Average lifetime <τ>: calculated from Eq. 2.
The nature of data set [2]: ANS steady-state fluorescence (hydrophobicity probe). Type of data set: biochemical. The source says: It is well known that the exposure of the hydrophobic patches of CaM is essential for target protein recognition. Such hydrophobic exposure can be photometrically monitored by its interaction with extrinsic 1-anilinonaphthalene 8-sulfonate (ANS) and 2-p-toluidinyl-naphthalene-6-sulfonate (TNS) molecules. These two fluorophores have been widely used as a probe for measuring hydrophobicity. ANS is a fluorescent dye which emits very weak fluorescence in water due to its excited charge transfer (CT) state that is quenched easily by water molecules. […] ANS fluorescence increases dramatically in a hydrophobic environment or when the rotational motion of its phenylamino group is restricted. […] The fluorescence increased when Ca^2+ was included in the mixture.
ANS fluorescence was excited at 350 nm.
Absorption measurements were carried out using a UV-1800 double-beam spectrometer (Shimadzu, Kyoto, Japan). The fluorescence spectra were recorded on a FluoroMax-3P (Horiba Scientific) equipped with a temperature control unit. For intrinsic Trp fluorescence, the excitation wavelength of 295 nm was chosen. […] The samples containing ANS or dansyl-labeled proteins were excited at 350 and 370 nm, respectively. The slit widths of 2 and 5 nm were typically chosen for excitation and emission, respectively, to eliminate photobleaching.

Where [3] appears, read: without Orai-CMBD, 5 μM protein, 50 μM ANS.

Some values come without a unit; they compare only within their column.

For `O=S(=O)(O)c1cccc2cccc(Nc3ccccc3)c12` [ANS, 1-anilinonaphthalene 8-sulfonate], the “KSV(τ2)” value in the data set with CaM (long lifetime of bound ANS) was 0.25 ± 0.05 M⁻¹. Besides, the “KSV(τ1)” value in the data set with CaM (short lifetime of bound ANS) was found to be 1.4 ± 0.2 M⁻¹. Also, the “shortest lifetime τ3 (free ANS)” value in data set [1] (free ANS, at detection limit of instrument) is recorded as ~ 0.3 ns. Besides, in data set [2] (ANS alone), the “ANS fluorescence λmax” value amounted to 520 nm.

As to Calmodulin [CaM], in data set [1] (Ca^2+, [ANS]/[CaM] ratio 0.5), the “B1 (normalized pre-exponential)” value was 0.33, the “B2 (normalized pre-exponential)” value came out at 0.16, the f1 was determined as 0.47 and the f2 stood at 0.49. Further, in data set [1] (with Orai-CMBD), the “ANS lifetime τ 1, Component 1” value was 6.8 ns; the “ANS lifetime τ 2, Component 2” value amounted to 16.9 ns; the “fractional intensity f 1, Component 1” value was 0.20; the “fractional intensity f 2, Component 2” value was determined as 0.66. Moreover, the “Average lifetime <τ>” value in data set [1] (with Orai-CMBD) was 13.1 ns. In data set [1] (setting [3]), the “ANS lifetime τ 1, Component 1” value is 6.4 ns; the “ANS lifetime τ 2, Component 2” value is given as 13.1 ns; the “fractional intensity f 1, Component 1” value is recorded as 0.44; the “fractional intensity f 2, Component 2” value was 0.53. Besides, the “Average lifetime <τ>” value in data set [1] (without Orai-CMBD) was 9.0 ns. Moreover, the “ANS fluorescence λmax” value in data set [2] (Ca^2+-bound protein, absence of Orai-CMBD, excitation […] nm) amounted to 480 nm.
